Results published in PubChem BioAssay AID2685 (National Center for Advancing Translational Sciences (NCATS), 2010).
Some of the results follow. These are further read-outs of the screen, such as a control signal, another cell line or another target. No call is given for them. The list favours compounds with an active or inconclusive main result. The note in brackets gives the kind of curve behind each potency; many fits are weak.

Experiment: qHTS Assay for Lipid Storage Modulators in Drosophila S3 Cells;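 as to cell number change: cells counted by Cell Tracker Red CMTPX staining in the red channel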
Conditions: BODIPY lipid droplet fluorescence, 18-24 h; for cell number change: measured here: cell count max response, cells fed with added oleic acid
In short: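 Drosophila S3 cells got compounds at several concentrations plus oleic acid (400 uM solution). Laser-scanning cytometry with 488 nm excitation read lipid droplets at 500-530 nm and cells at 575-640 nm. Percent activity was relative to 20 uM Triacsin C.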

[1] = measured here: lipid fluorescence (Fed channel) AC50, cells fed with added oleic acid
[2] = measured here: cell number channel AC50, cells fed with added oleic acid

SMILES | AC50 [1] | cell number change | AC50 [2]
COC(C[C@H]1O[C@@H]1[C@@H](O)[C@H](C)OCc1ccccc1)OC | 6510 nM [rising, partial curve] |  | 
CCn1c(CC(=O)Nc2ccc(C)cc2)n[nH]c1=S |  | -6.4% | 
Cc1ccc(C)c(S(=O)(=O)C(C#N)c2nc3ccccc3nc2N2CCCC2)c1 (stereo not drawn) |  | -8.56% | 
O=[N+]([O-])c1ccc(Cl)c(S(=O)(=O)N2CCCCCC2)c1 | 580 nM [falling, partial curve, poor fit] | -22.1% | 
Cc1cnn(-c2ccc3nnc(-c4ccc(Cl)cc4)n3n2)c1 |  | -13.5% | 
CCn1nnc2cc(C(=O)Nc3cccc(S(=O)(=O)N(C)C)c3)ccc21 | 32600 nM [falling, single point] | 12.3% | 
COC(=O)c1ccccc1NC(=O)C1CCCN(S(=O)(=O)c2ccc(OC)cc2)C1 (stereo not drawn) |  | 4.67% | 
CCOc1c(Cl)cc(CNc2nnnn2C)cc1OC | 18400 nM [rising, single point] | 1.84% | 
CC(=O)N(C)c1ccc(NS(=O)(=O)c2cc(Cl)ccc2Cl)cc1 | 2060 nM [falling, full curve, poor fit] | -27.4% | 2310 nM [falling, full curve, poor fit]
CCOC(=O)c1c(NC(=O)c2nn(CC)cc2Br)c(C#N)nn1-c1ccccc1 |  |  | 1300 nM [rising, partial curve]
O=C(CSc1nnc(COc2ccccc2)o1)NCCc1ccccc1 |  | 20.4% | 4.11 nM [rising, full curve, poor fit]
Cc1ccc(CNC(=O)/C(C#N)=C\c2ccc(N(C)C)cc2)cc1 |  | -36.5% | 29100 nM [falling, single point]
CC(=O)N1CCN(CC(=O)NC(=O)Nc2ccc3c(c2)OCCO3)CC1 | 820 nM [rising, full curve, poor fit] | -9.72% | 
CCOC(=O)c1cnc2c(N=Nc3ccccc3)c(N)nn2c1N | 411 nM [falling, partial curve, poor fit] |  | 
CC(C)CCn1c(SCC(=O)c2ccccc2)nc2c1c(=O)[nH]c(=O)n2C |  | 10.4% | 
Cc1ccc(-c2noc(CNC(=O)c3ccc4c(c3)OCO4)n2)cc1 |  | 25.6% | 
CN1CCN(C(=O)NC2CCCN2S(=O)(=O)c2ccc(Cl)cc2)CC1 (stereo not drawn) |  | -20.5% | 
N/C(=N\OC(=O)CCCOc1ccccc1)c1ccc([N+](=O)[O-])cc1 | 1840 nM [falling, partial curve, poor fit] | -26.6% | 
COc1ccc(CC(=O)n2[nH]c(=O)cc(C)c2=O)cc1OC | 29100 nM [falling, single point] | -59.5% | 29100 nM [falling, single point]
O=C(CNC(=S)N(Cc1ccccc1Cl)C1CCCC1)NCCCN1CCOCC1 |  | -19.6% | 

SMILES | AC50 [1] | cell number change | AC50 [2]
CC(=O)Nc1ccc(NC(=O)CCNS(=O)(=O)c2cccc3nsnc23)cc1 | 6510 nM [falling, single point] | 5.87% | 731 nM [falling, full curve]
O=C1CC(SC(=Nc2ccccc2)Nc2ccccc2)C(=O)N1c1ccc(Cl)c(Cl)c1 (stereo not drawn) | 20600 nM [rising, partial curve, poor fit] | 10.2% | 
CCCn1c(C(C)Nc2nc(-c3ccc(C)cc3)cs2)nc2cc(Cl)c(Cl)cc21 (stereo not drawn) | 29100 nM [rising, single point] | 17.8% | 
Cc1cc(C)n(CCOC(=O)c2sc3ccccc3c2Cl)n1 | 4.61 nM [falling, full curve, poor fit] | -48.2% | 5.17 nM [falling, full curve, poor fit]
O=C(CCNC(=O)N1CC(=O)Nc2ccccc21)NCc1cccc(Cl)c1 | 6510 nM [falling, single point] |  | 
COc1cc(/C=C2/C(=O)ON=C2C)cc(Cl)c1O | 29100 nM [falling, single point] | -5.41% | 
O=C(O)c1ccccc1-c1csc(-c2ccccc2)n1 |  | -88.2% | 
O=C(O)C(NS(=O)(=O)c1cccc2nsnc12)c1ccccc1 (stereo not drawn) |  | -19.2% | 920 nM [falling, full curve, poor fit]
CCOc1ccc(-c2nc(CSCC(=O)N3CCN(c4cccc(OC)c4)CC3)c(C)o2)cc1 | 29100 nM [falling, single point] | -46.1% | 16400 nM [falling, single point]
O=C(CNC(=O)C1CCCCC1)OC(C(=O)c1ccccc1)c1ccccc1 (stereo not drawn) | 116 nM [falling, single point] | -0.582% | 651 nM [falling, partial curve, poor fit]
S=C(NCCc1ccc(Cl)cc1)NC1CCCCC1 |  | 3.52% | 
COc1ccccc1N1CCN(Cc2cc(=O)c(OCC(=O)Nc3ccccc3)co2)CC1 |  |  | 130 nM [rising, full curve, poor fit]
Cc1cc(C)c(NC(=O)CNC(=O)COC(=O)CN2C(=O)NC3(CCCC3)C2=O)c(C)c1 |  |  | 5800 nM [rising, partial curve]
CCNC(=O)C1CC(=O)N(Cc2ccc3c(c2)OCO3)C(=Nc2ccc(OCC)cc2)S1 (stereo not drawn) | 580 nM [rising, single point] |  | 580 nM [rising, single point]
CN(C(=O)c1c(Br)cnn1C)C12CC3CC(CC(C3)C1)C2 | 231 nM [falling, full curve, poor fit] | -39.3% | 461 nM [falling, full curve, poor fit]
Cc1c(C(=O)NCCc2ccc(Cl)cc2)sc2nc3n(c(=O)c12)CCC3 |  | -71% | 
COCCCn1c(=S)[nH]c2ncccc2c1=O |  | -12.7% | 4.61 nM [falling, full curve, poor fit]
CN(c1ccccc1)S(=O)(=O)c1ccc(C(=O)NCCc2ccc(F)cc2)cc1 |  | 29.1% | 
C[C@@H](OC(=O)N(C)Cc1ccccc1)[C@H]1O[C@]2(C)CCCC[C@H]1O2 | 5.17 nM [falling, full curve, poor fit] | -22.1% | 
CCOc1ccc2c(c1)C(c1ccc(C)o1)=NNC(c1ccncc1)=N2 |  | 89.5% | 

Of the compounds above, two have a thiophene ring, fused or not:
SMILES | AC50 [1] | cell number change | AC50 [2]
Cc1cc(C)n(CCOC(=O)c2sc3ccccc3c2Cl)n1 | 4.61 nM [falling, full curve, poor fit] | -48.2% | 5.17 nM [falling, full curve, poor fit]
Cc1c(C(=O)NCCc2ccc(Cl)cc2)sc2nc3n(c(=O)c12)CCC3 |  | -71% | 
